Assay results published in article doi:10.1101/2021.04.10.439283.
These are yes or no findings as the source states them, for the method shown. Some results given as binding are weak or reduced against the parent protein; the word gives no strength. Tags and fused reporters may be left off the sequences shown.

Molecular target: T1, Mre11 fused to lexA-DBD (S. cerevisiae) (UniProt P32829)
T1 sequence: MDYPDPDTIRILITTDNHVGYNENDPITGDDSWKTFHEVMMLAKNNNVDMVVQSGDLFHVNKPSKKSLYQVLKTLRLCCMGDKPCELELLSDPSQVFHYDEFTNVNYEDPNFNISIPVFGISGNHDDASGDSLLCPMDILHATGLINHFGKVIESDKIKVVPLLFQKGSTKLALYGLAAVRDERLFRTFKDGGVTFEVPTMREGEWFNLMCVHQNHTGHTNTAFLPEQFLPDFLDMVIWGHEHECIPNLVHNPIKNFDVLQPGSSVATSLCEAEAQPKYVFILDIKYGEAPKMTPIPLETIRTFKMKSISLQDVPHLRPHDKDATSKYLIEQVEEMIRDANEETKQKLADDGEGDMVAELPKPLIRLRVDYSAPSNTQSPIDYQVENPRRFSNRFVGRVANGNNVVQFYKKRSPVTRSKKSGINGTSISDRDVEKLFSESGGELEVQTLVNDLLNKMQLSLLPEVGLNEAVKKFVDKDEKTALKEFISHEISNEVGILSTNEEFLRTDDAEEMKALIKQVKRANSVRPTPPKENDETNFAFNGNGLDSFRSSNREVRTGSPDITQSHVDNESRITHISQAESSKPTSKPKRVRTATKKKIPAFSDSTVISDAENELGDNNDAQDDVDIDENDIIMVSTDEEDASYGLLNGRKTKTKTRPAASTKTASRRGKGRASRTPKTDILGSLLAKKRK
Assay: two-hybrid

B1: Rad50 fused to HA-AD (protein, UniProt P12753 1-1312)
chain: MSAIYKLSIQGIRSFDSNDRETIEFGKPLTLIVGMNGSGKTTIIECLKYATTGDLPPNSKGGVFIHDPKITGEKDIRAQVKLAFTSANGLNMIVTRNIQLLMKKTTTTFKTLEGQLVAINNSGDRSTLSTRSLELDAQVPLYLGVPKAILEYVIFCHQEDSLWPLSEPSNLKKKFDEIFQAMKFTKALDNLKSIKKDMSVDIKLLKQSVEHLKLDKDRSKAMKLNIHQLQTKIDQYNEEVSEIESQLNEITEKSDKLFKSNQDFQKILSKVENLKNTKLSISDQVKRLSNSIDILDLSKPDLQNLLANFSKVLMDKNNQLRDLETDISSLKDRQSSLQSLSNSLIRRQGELEAGKETYEKNRNHLSSLKEAFQHKFQGLSNIENSDMAQVNHEMSQFKAFISQDLTDTIDQFAKDIQLKETNLSDLIKSITVDSQNLEYNKKDRSKLIHDSEELAEKLKSFKSLSTQDSLNHELENLKTYKEKLQSWESENIIPKLNQKIEEKNNEMIILENQIEKFQDRIMKTNQQADLYAKLGLIKKSINTKLDELQKITEKLQNDSRIRQVFPLTQEFQRADLEMDFQKLFINMQKNIAINNKKMHELDRRYTNALYNLNTIEKDLQDNQKSKEKVIQLLSENLPEDCTIDEYNDVLEETELSYKTALENLKMHQTTLEFNRKALEIAERDSCCYLCSRKFENESFKSKLLQELKTKTDANFEKTLKDTVQNEKEYLHSLRLLEKHIITLNSINEKIDNSQKCLEKAKEETKTSKSKLDELEVDSTKLKDEKELAESEIRPLIEKFTYLEKELKDLENSSKTISEELSIYNTSEDGIQTVDELRDQQRKMNDSLRELRKTISDLQMEKDEKVRENSRMINLIKEKELTVSEIESSLTQKQNIDDSIRSKRENINDIDSRVKELEARIISLKNKKDEAQSVLDKVKNERDIQVRNKQKTVADINRLIDRFQTIYNEVVDFEAKGFDELQTTIKELELNKAQMLELKEQLDLKSNEVNEEKRKLADSNNEEKNLKQNLELIELKSQLQHIESEISRLDVQNAEAERDKYQEESLRLRTRFEKLSSENAGKLGEMKQLQNQIDSLTHQLRTDYKDIEKNYHKEWVELQTRSFVTDDIDVYSKALDSAIMKYHGLKMQDINRIIDELWKRTYSGTDIDTIKIRSDEVSSTVKGKSYNYRVVMYKQDVELDMRGRCSAGQKVLASIIIRLALSETFGANCGVIALDEPTTNLDEENIESLAKSLHNIINMRRHQKNFQLIVITHDEKFLGHMNAAAFTDHFFKVKRDDRQKSQIEWVDINRVTY
  binding: binds
